Test results as given in PubChem BioAssay AID1347423 (Functional Genomics Laboratory (NCATS/FGL), 2020).
In all, about 52,000 sequences went through this assay and about 210 (0.4%) were called active.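 How the source made its calls: active means gene whose silencing raises cell survival under the drug, median off-target-corrected z-score across its silencing RNAs 2 or more; inactive means the rest.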 The list shows a part of the results.

Test: Resistance to Poly (ADP-Ribose) Polymerase inhibitor: Gene Identification via Genome-wide siRNA Screen
Conditions: mouse BRCA2 R2336H ES cells, olaparib, CellTiter-Glo viability; active compounds read high
Outline: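 Genome-wide siRNA screen (3 siRNAs/gene, 20 nM) in mouse ES cells carrying hypomorphic BRCA2 R2336H; olaparib 500 nM added 48 h post-transfection, CellTiter-Glo viability 72 h later. Normalized to plate-median negative control; MAD z-scores, gene median, seed-adjusted.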
For GGAGAAGAGAAUAGAAGAATT against Ren1, the z-score was inactive: -1.02. In the case of GGAGCAUUCACAUACUUACTT against Olfr944, the z-score is reported as inactive: -0.295. For “GGUUUGUGUCUAAGGAAUUTT against B230308G19Rik”, the z-score was inactive: -0.754. For CGGAAAGACGAUGCUCAAUTT against Lztr1, the z-score was inactive: -0.713. With “GGUCCUUAAUGAGCCUGGATT against B230218L05Rik” the z-score was inactive: 0.00126. With CCAGGUUGAUGAUUUCAACTT against Tbcc the z-score was inactive: -0.243. For GGUUCACAAUGGAUUAUGATT against Lrrc25, the z-score was inactive: 0.63. In the case of CGAAAGCACACACGUAGAATT against Erdr1, the z-score is reported as inactive: 0.349. In the case of GGAAAUCAGGAGUAAAAGUTT against Prkr, the z-score is reported as inactive: -1.04. In the case of GCACACGUUACAAUUACAGTT against Il8rb, the z-score is reported as inactive: -0.0632. With CCAUCAAUCAUCAUCGCCUTT against Slc27a2 the z-score was inactive: 1.3. For GCGCAAGUCUCCAUUUGCATT against BC021438, the z-score was inactive: 0.258. For CUAAAUGCCUCCUACCUUUTT against LOC435285, the z-score was inactive: -1.46. For CCCAGUAAAUAAGAGUACATT against Treml1, the z-score was inactive: -0.647. In the case of GGGUAGAUAACAUCUGGACTT against Dgat2, the z-score is reported as inactive: 0.546. With GGACAUGGUCCUUCCUAAATT against Arl10c the z-score was inactive: 0.091. For CCUAUGAUUCAGUGUAUCUTT against Hdac6, the z-score was inactive: -0.362. In the case of “GGUCGCUGGAGACCUUAGUTT against 6430706D22Rik”, the z-score is reported as inactive: -0.229. In the case of GGUUUCUGGCUUUCCGUAGTT against Erf, the z-score is reported as inactive: -1.44. In the case of CGACCUGGAUAGGUUGUUUTT against Ckap4, the z-score is reported as inactive: 1.42. In the case of “GGAGCUAAAAGAGUGCUCCTT against D14Ertd231e”, the z-score is reported as inactive: 0.269. With GGCCUGAGACUCUCACAGATT against Taf5l the z-score was inactive: -1.1. In the case of CCGGUUUUAUGCAGUGUGUTT against Taar3, the z-score is reported as inactive: -0.457. In the case of GGCAUUGUGAAGCUGAAACTT against Ptpn9, the z-score is reported as active: 1.93. In the case of GGCUUUUGAGCUGAUCUUGTT against Stmn2, the z-score is reported as inactive: -0.0751. In the case of GGGUUUGUAAUAAUGCUUGTT against Cklfsf6, the z-score is reported as inactive: -0.245. For GCUUUUAACAUCGAGUAAUTT against Top2b, the z-score was inactive: -1.35. With GCAUCUACCUUCUAUUACUTT against Gpsm1 the z-score was inactive: -0.421. In the case of GCAUGCUAGAUGUGGUCUGTT against BC018601, the z-score is reported as inactive: -2.63. For “GGCUCCUCUUUUAUCUACATT against 0610007P14Rik”, the z-score was inactive: -1.2. With “CCGCAGUUGUCUUUCAAGATT against B930007L02Rik” the z-score was inactive: -0.909. For GGGCACAAGAUCUAUAUAUTT against Anpep, the z-score was inactive: 0.593. In the case of GCUAUGAAACAUGCCGGAGTT against Mrps21, the z-score is reported as inactive: 0.368. With GGCUGAAGAGAUUGUCAAUTT against Aars the z-score was inactive: -1.53. For “GGAGUGUUUCUACCAGCCCTT against 4432412D15Rik”, the z-score was inactive: 0.0825. With GGACUACCGAGGUUUAACCTT against Snx22 the z-score was inactive: 1.01. With GCCAUUUUUGAUGGUAUACTT against Atp6v1a1 the z-score was inactive: -0.938. With GGUCAUCAUGUCUCAUCAGTT against Olfr983 the z-score was inactive: 0.865. With GGGAUUUCACUUCUUAUCATT against Olfr781 the z-score was inactive: 0.0503. With GCCACGAACAUGAUGUACATT against Slco3a1 the z-score was inactive: -1.83. For GCCCGGUUUGAAGAACAUATT against Ndufb9, the z-score was inactive: 1.18. In the case of CCCGAGAUACAAAAUCAUUTT against Dscr1l2, the z-score is reported as inactive: 1.4. For “CCUCUAUCUAACCUUUUCUTT against 1810037I17Rik”, the z-score was inactive: 0.178. In the case of “CCAUCUCAGGUGCAAUUUGTT against 4921506M07Rik”, the z-score is reported as inactive: 1.79. For GGACCUCAGAAUUUAUACUTT against Atf5, the z-score was inactive: 0.81. In the case of CCAAUCAUUGAAGAUAGAGTT against Olfr811, the z-score is reported as inactive: -0.224. For “CCGUGGCAACUGGUAUUAUTT against 9830002I17Rik”, the z-score was inactive: 1.38. For GCACGUGGGCUAUUCCUACTT against Gria1, the z-score was active: 2.78. In the case of GGAAGAACAUUGUUACCUGTT against Polydom, the z-score is reported as inactive: -0.0789. With GGCCUAUUAUACAGUGUAUTT against Anxa3 the z-score was inactive: 0.315. With “GGCAGUGACACAGAAAUGATT against D130072O21Rik” the z-score was inactive: -0.738. In the case of GGGAGACAAACUGAUCUCUTT against Olfr324, the z-score is reported as inactive: -0.0366. In the case of GGAAGUCUGUCCAAAGCAUTT against Olfr190, the z-score is reported as inactive: -0.308. In the case of GGGAGAAGAAGAUACACCATT against Usp47, the z-score is reported as active: 2.16. For GGAAAAAAUCUGCAUCCGATT against Neu1, the z-score was inactive: 1.62. In the case of GGUAUGAUGCCUAUUUAUUTT against Cln8, the z-score is reported as inactive: 0.667. In the case of CGACUACCAGAGUCAUUCGTT against Lyzl6, the z-score is reported as inactive: -0.526. With CCCAAAACCCUGCUAUUCATT against Synj2bp the z-score was inactive: -2.45. With CGACUUGUAUCGUAUGGCUTT against Grm7 the z-score was inactive: -0.92. For CCCAGGACUCAUGAUUACATT against Tas2r134, the z-score was inactive: -1. In the case of GGUCAUCUAUCGUGUGCUGTT against Lamb2, the z-score is reported as inactive: 1.09. With GCUUACAUUAAAGGAUAUGTT against Rab5c the z-score was inactive: 0.445. With “CCUACACCCAAUUAAGAGUTT against F830005K03Rik” the z-score was inactive: -0.0606. For GCACACCUUUAAUAGCUAATT against Gcm1, the z-score was inactive: -1.46. For “GCUGGAUUAUUUGAGAGUCTT against 6330414G21Rik”, the z-score was inactive: -0.00472. For “CCUAGCUGUUAGGAAGCAATT against 6030410K14”, the z-score was inactive: -0.574. For GGAAUGUUUUCAUGACUGUTT against Ttc1, the z-score was inactive: -0.941. With GGCCGUAUAACAGGACUUUTT against Cltb the z-score was inactive: 0.652. In the case of “GGAAAAAAGGAAUUGACUUTT against 1200007O21Rik”, the z-score is reported as inactive: 1.09. With CCCACCCAUCUAAUUUUUGTT against Gm266 the z-score was inactive: 0.666. In the case of GCAUUCACCGUACGUAUUCTT against Idb4, the z-score is reported as inactive: 0.66. With “GGGCACAGGAUGAAAUGCATT against 4930511H11Rik” the z-score was inactive: 0.355. For GCUGGUGCUGUGCAUCUUUTT against Aqp2, the z-score was inactive: -0.287. With GCAGAUUAGAAGCUAGUAUTT against Rab27b the z-score was inactive: 0.504. In the case of CGCUUAGCAAUAUCAUCGATT against Asna1, the z-score is reported as inactive: 0.831. In the case of GGUCAUUGUUUAUGUCACATT against Sorcs3, the z-score is reported as inactive: -1.4. In the case of GGAGGUUUUCAUGGUUAUCTT against Nrgn, the z-score is reported as inactive: 1.3. With GGUUCAAUGCUCCCUUCGATT against Ghrl the z-score was inactive: -2.65. With GGGAAGACACUGGCUUCAGTT against Lepr the z-score was inactive: 0.477. With GGAAAUCAAUGCAUUGUCCTT against Fbn2 the z-score was inactive: -0.0373. In the case of GCCAUAUUUACUAAGCAGATT against Plcl2, the z-score is reported as inactive: 0.676. In the case of GGCAGCUAGAAAUUCACUCTT against Sntb1, the z-score is reported as inactive: -1.09. In the case of GCGCAUCAUCGAUUCUGCCTT against Sfn, the z-score is reported as inactive: -0.292. In the case of “GGCUUUGGAAUAUACCGAGTT against 1600012K10Rik”, the z-score is reported as inactive: -0.843. For GGUGAACUCUUCACAUUUGTT against Fcer1a, the z-score was inactive: 0.82. In the case of GCAAAACUGAACAAAGUACTT against Cmya3, the z-score is reported as inactive: -0.714. For GCAAAAUAACUGGGACUUGTT against Faf1, the z-score was inactive: 0.731. In the case of “GGAGAGCUGAAAGAUUUAATT against D630005C06Rik”, the z-score is reported as inactive: 0.472. For GGAUCCUUACAAUAACAUUTT against Mut, the z-score was inactive: 1.26. For GAAGUCGGUGGACAAGAACTT against Cebpa, the z-score was inactive: 0.628. With CCAAAAAUGCAACCCUCACTT against Tde2l the z-score was inactive: 0.0333. For GCCCUAUUCCCAACUAUUCTT against Nefl, the z-score was inactive: 0.169. For CCUCCACCUAGAAUGUGACTT against Ghrhr, the z-score was inactive: -0.404. With GCCACUUCCUGGAUAAGGATT against Ftl2 the z-score was inactive: -1.24. In the case of GGUUUCUUUUAAGCAUCAUTT against Olfr862, the z-score is reported as inactive: -0.101. In the case of GGGUGAAUCAUUCUGUGACTT against Olfr1313, the z-score is reported as inactive: -0.574. With GGGCAUCUUCUACCUGACCTT against Zdhhc9 the z-score was inactive: 1.59. For “GGUGAAAAACCCUAUAGUUTT against A230042K10Rik”, the z-score was inactive: 0.874. In the case of “GGGCCUGUAAUGGUGUACATT against B230317F23Rik”, the z-score is reported as inactive: -0.882. For “GGGUGAGUUGUUAAAUCCUTT against 9630025C22”, the z-score was inactive: 1.35. For GUCAAAGAGUUUCAGCAUCTT against Foxl1, the z-score was inactive: 0.938. In the case of GGCAGCAAGUUUUUUAAUCTT against Cap1, the z-score is reported as inactive: 0.782. With GGCAAUUGAUAUGGUUCAGTT against Magea9 the z-score was inactive: -0.346. With “GGAAAGCCACUGUGUAAAATT against 4930438O05Rik” the z-score was inactive: 0.0884.
